From patent publication US20120252834A1 (priority 2009, published 2012)
Read-outs that look alike come from different tables or passages of the source. At least one structure is not confirmed: it was looked up by name or label, or the drawing left a doubt.

Key:
[1] = system: SEB-induced proliferation of T cells in PBMC; type: cell-based, human
[2] = system: SEB-induced toxic shock in C3H/HeJ mice; settings: mouse, in vivo
[3] = system: serum MCP-1, IL-6 and IL-2 in SEB-treated mice; settings: mouse, in vivo
[4] = system: human PBMC stimulated with SEB; type: cell-based

## CO[C@H]1C[C@@H]2CC[C@@H](C)[C@@](O)(O2)C(=O)C(=O)N2CCCC[C@H]2C(=O)O[C@H]([C@H](C)C[C@@H]2CC[C@@H](O)[C@H](OC)C2)CC(=O)[C@H](C)/C=C(\C)[C@@H](O)[C@@H](OC)C(=O)[C@H](C)C[C@H](C)/C=C/C=C/C=C/1C [rapamycin]
[1]
  inhibition of proliferation, short exposure: Partial inhibition
[2]
  body temperature: normal
  clinical signs of intoxication (ruffled fur, lethargy): completely absent
  hypothermic response: completely absent
  protection against SEB-mediated shock: totally unprotective
  weight: normal
[2]; ip
  body temperature: maintained normal body temperature
[3]
  serum IL-2 at later time points: no IL-2 present
  serum concentrations of IL-2: remained high
[4]
  production of chemokines MCP-1, MIP-1α, and MIP-1β: dose dependently reduced
